Reference: PMC6116281
No constants are given. Whether binding was seen depends on the method and setting. For part of these data: Binding seen in cells or lysates may run through a third protein. Some entries that bind do so weakly or less than the wild type. Sequences can lack the tags named with a protein.

T1: Cdk8-HA (S. cerevisiae) (UniProt P39073)
T1 sequence: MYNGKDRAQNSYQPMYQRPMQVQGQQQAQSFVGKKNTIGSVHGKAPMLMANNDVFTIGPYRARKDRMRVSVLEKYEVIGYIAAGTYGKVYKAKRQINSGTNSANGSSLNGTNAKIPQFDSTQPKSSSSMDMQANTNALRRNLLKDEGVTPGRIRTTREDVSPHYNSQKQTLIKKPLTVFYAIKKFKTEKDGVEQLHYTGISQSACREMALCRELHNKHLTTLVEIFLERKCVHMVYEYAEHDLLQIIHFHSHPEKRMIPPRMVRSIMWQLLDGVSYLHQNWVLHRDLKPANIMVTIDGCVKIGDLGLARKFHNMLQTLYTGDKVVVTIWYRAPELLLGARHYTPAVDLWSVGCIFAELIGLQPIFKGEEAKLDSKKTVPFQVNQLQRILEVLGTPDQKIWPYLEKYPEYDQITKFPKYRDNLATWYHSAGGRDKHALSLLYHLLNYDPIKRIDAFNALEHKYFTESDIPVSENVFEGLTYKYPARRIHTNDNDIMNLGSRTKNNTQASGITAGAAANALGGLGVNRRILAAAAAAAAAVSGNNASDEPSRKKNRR

T2: Grr1 (wild-type), Gal4 binding domain bait (S. cerevisiae) (UniProt P24814)
T2 sequence: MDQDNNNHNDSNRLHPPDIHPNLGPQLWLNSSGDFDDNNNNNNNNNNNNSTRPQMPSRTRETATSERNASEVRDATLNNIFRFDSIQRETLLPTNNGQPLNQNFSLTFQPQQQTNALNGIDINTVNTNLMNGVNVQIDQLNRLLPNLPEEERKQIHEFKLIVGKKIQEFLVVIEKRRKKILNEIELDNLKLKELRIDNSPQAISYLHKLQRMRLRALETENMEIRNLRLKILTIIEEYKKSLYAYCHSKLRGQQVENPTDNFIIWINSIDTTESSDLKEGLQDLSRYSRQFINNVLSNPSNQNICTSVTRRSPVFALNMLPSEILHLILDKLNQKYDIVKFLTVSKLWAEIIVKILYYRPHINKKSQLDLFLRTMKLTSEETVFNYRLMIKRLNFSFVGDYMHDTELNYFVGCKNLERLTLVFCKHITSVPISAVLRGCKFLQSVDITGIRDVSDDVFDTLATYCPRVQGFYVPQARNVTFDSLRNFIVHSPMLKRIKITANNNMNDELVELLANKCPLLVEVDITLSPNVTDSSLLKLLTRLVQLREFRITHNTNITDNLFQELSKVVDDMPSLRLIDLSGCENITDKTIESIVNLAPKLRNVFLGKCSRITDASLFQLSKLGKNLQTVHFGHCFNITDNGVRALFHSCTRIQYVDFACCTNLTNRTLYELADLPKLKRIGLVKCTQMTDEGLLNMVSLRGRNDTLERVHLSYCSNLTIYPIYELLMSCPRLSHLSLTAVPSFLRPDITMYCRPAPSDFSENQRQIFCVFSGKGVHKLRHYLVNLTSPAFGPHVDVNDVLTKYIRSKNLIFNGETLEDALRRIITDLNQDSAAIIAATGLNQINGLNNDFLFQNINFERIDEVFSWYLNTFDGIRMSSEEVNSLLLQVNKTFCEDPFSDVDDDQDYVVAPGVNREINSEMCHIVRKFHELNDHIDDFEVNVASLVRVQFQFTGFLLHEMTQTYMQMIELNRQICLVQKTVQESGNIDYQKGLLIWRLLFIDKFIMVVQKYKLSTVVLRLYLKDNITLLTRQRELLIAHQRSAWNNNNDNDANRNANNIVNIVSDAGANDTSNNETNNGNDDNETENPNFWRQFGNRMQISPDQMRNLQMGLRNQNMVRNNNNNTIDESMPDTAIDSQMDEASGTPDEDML

T3: Psk1 (PAS kinase), two-hybrid bait (S. cerevisiae) (UniProt P31374)
T3 sequence: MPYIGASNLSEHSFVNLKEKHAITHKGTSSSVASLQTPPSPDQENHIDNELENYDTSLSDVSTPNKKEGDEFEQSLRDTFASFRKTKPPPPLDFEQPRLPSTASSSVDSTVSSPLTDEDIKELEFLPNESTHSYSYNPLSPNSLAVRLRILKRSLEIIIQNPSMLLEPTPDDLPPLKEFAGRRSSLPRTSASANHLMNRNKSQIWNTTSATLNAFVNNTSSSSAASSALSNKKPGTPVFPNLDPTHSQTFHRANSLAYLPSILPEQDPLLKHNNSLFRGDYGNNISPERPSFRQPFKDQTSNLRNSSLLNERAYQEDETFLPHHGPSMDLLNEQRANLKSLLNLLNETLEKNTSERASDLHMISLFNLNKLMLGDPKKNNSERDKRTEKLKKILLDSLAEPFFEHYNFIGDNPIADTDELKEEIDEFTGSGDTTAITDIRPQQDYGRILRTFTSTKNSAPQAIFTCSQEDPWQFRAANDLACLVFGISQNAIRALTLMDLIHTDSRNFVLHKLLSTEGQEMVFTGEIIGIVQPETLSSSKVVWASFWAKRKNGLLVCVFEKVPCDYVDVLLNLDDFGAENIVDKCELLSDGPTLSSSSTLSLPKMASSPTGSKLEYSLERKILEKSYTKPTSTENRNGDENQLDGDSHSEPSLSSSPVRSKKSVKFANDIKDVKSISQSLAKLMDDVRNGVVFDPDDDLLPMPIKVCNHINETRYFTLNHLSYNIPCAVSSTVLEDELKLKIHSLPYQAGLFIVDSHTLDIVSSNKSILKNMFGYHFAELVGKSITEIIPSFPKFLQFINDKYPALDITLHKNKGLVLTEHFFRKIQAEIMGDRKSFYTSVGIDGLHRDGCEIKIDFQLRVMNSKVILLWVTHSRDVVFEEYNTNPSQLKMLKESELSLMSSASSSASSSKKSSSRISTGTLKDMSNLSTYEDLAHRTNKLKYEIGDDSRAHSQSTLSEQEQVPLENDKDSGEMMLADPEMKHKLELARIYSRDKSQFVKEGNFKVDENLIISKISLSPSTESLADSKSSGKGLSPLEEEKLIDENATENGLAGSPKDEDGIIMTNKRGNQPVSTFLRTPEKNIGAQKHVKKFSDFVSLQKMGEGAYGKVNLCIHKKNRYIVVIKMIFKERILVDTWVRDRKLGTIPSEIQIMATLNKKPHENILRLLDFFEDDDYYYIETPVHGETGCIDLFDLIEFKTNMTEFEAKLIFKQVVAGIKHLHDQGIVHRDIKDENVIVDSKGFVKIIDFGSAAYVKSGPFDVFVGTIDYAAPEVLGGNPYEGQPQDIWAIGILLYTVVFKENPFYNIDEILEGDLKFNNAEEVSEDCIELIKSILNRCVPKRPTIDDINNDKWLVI


How the values were obtained:
[1] = molecular target: T1, Cdk8-HA (S. cerevisiae); assay: co-IP; protein extracts of mid-log wild-type yeast with Snf1-myc and Cdk8-HA on single copy plasmids, treated with 0.4 mM H2O2 for a time course; immunoprecipitated with anti-HA, Western blot
[2] = molecular target: T2, Grr1 (wild-type), Gal4 binding domain bait (S. cerevisiae); assay: two-hybrid; Gal4 yeast two-hybrid in PJ69-4a cells; Med13 fragment on the Gal4 activating domain (prey), bait on the binding domain; growth on -TRP, -LEU, -HIS, -ADE medium (dual HIS3 and ADE2 reporter genes)
[3] = molecular target: T3, Psk1 (PAS kinase), two-hybrid bait (S. cerevisiae); assay: as above

| binding [1] | binding [2] | binding [3] | Binder |
| --- | --- | --- | --- |
| binds | – | – | Snf1-myc (enzyme, UniProt P06782 1-633) MSSNNNTNTAPANANSSHHHHHHHHHHHHHGHGGSNSTLNNPKSSLADGAHIGNYQIVKTLGEGSFGKVKLAYHTTTGQKVALKIINKKVLAKSDMQGRIEREISYLRLLRHPHIIKLYDVIKSKDEIIMVIEYAGNELFDYIVQRDKMSEQEARRFFQQIISAVEYCHRHKIVHRDLKPENLLLDEHLNVKIADFGLSNIMTDGNFLKTSCGSPNYAAPEVISGKLYAGPEVDVWSCGVILYVMLCRRLPFDDESIPVLFKNISNGVYTLPKFLSPGAAGLIKRMLIVNPLNRISIHEIMQDDWFKVDLPEYLLPPDLKPHPEEENENNDSKKDGSSPDNDEIDDNLVNILSSTMGYEKDEIYESLESSEDTPAFNEIRDAYMLIKENKSLIKDMKANKSVSDELDTFLSQSPPTFQQQSKSHQKSQVDHETAKQHARRMASAITQQRTYHQSPFMDQYKEEDSTVSILPTSLPQIHRANMLAQGSPAASKISPLVTKKSKTRWHFGIRSRSYPLDVMGEIYIALKNLGAEWAKPSEEDLWTIKLRWKYDIGNKTNTNEKIPDLMKMVIQLFQIETNNYLVDFKFDGWESSYGDDTTVSNISEDEMSTFSAYPFLHLTTKLIMELAVNSQSN |
| – | binds | binds | Gal4 activating domain Med13^571-650 fusion protein (domain or fragment, UniProt P38931 571-650) KRKYLDIPIDEMTLPTSPLYMDPGAPLPVETPRDRRKSVFAPLNFNPIIENNVDNKYKSGGKFSFSPLQKEEALNFDISM |
